Paper doi:10.1101/780460

Molecular target: Flag-tagged SOD1^G127X (human) (UniProt P00441)
Test: co-IP

Myc-tagged TRAF6 wild type (from UniProt Q9Y4K3 1-522)
binding: binds

Results are given in words; binding and its absence hold for the method and conditions named. In cells and extracts the contact can be indirect. A result given as binding can be weak or reduced; the word gives no strength.
